No constants are given. Whether binding was seen depends on the method and setting. Some entries that bind do so weakly or less than the wild type.
Molecular target: INCENP a.a. 491-873 (coiled-coil domain and INBox) (Xenopus laevis) (UniProt O13024)
Experiment: tandem affinity co-purification (Ni-NTA, then Strep-Tactin); INCENP 491-873 and Aurora-B co-expressed in E. coli; first pulled by the His tag on the INBox construct, then by the Strep-tag II on Aurora-B; read by SDS-PAGE

The chains behind the UniProt entries cited, without tags or fusion partners. Residues count along the entry.
UniProt O13024, residues 491-873: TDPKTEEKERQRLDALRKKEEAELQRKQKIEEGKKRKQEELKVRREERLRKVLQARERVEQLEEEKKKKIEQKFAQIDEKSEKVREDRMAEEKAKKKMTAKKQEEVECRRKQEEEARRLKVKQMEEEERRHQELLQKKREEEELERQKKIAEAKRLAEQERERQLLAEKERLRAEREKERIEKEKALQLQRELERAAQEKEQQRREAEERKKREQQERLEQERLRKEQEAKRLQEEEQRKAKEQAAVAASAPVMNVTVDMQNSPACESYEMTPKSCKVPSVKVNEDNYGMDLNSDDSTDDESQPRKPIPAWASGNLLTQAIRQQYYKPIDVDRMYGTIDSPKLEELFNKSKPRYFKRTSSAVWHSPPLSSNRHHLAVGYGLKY
UniProt Q6DE08: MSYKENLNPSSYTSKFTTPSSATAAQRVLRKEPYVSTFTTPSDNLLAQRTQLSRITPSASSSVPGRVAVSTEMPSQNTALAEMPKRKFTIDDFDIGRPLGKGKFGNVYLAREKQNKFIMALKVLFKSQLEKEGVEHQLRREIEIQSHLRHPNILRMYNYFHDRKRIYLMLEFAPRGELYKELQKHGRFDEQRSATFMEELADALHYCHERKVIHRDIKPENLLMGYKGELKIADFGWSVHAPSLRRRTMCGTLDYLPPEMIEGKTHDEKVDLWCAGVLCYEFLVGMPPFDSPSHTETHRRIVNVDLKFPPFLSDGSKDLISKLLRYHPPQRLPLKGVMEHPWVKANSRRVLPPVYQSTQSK

binding: binds
Substance: Aurora-B-GFP (from UniProt Q6DE08 1-361) (enzyme)

Reference: PMC3912212
